According to patent publication US20080096974A2, “Polyamine-Metal Chelator Conjugates” (University of Florida Research Foundation, Inc., priority 2003, published 2008):
Structures can show the parent of a compound that is named as a salt. Where two headings read alike, the source gives them in different places. At least one structure is not confirmed: it was looked up by name or label, or the drawing left a doubt. Some of these results come from one statement about several compounds together.

Experiments:
[1] = tested on: Murine L1210 leukemia cells; experiment: L1210 cell growth inhibition (IC50); format: cell-based
Procedure: Murine L1210 leukemia cells were maintained in logarithmic growth as a suspension culture in RPMI-1640 medium (Gibco, Grand Island, N.Y.) containing 10% fetal bovine serum (Gibco), 2% HEPES-MOPS buffer, 1 mM L-glutamine (Gibco), and 1 mM aminoguanidine at 37° C. in a water-jacketed 5% CO2 incubator.
Cells were grown in 25 cm^2 tissue culture flasks in a total volume of 10 mL. Cultures were treated during logarithmic growth (0.5−1.0×10^5 cells/mL) with the compounds of interest, reseeded, and incubated as described in Bergeron, R. J., Müller, R., Bussenius, J., McManis, J. S., Merriman, R. L., Smith, R. E., Yao, H., Weimar, W. R., “Synthesis and Evaluation of Hydroxylated Polyamine Analogues as Antiproliferatives,” J. Med. Chem 43: 224-235 (2000). Cell counting and calculation of percent of control growth were also carried out as described in Bergeron, et al. The IC50 is defined as the concentration of compound necessary to reduce cell growth to 50% of control growth after defined intervals of exposure.

[2] = Stoichiometry of metal-ligand complex (Job's plot); format: physicochemical; conditions: Fe(III), TRIS pH 7.4
polyamine transporter = experiment: Competition with [3H]SPD for uptake into L1210 cells (polyamine transporter, Ki); format: cell-based, murine; conditions: L1210 cell suspensions; read-out: Ki, competition with [3H]SPD for the polyamine transport apparatus
Source text: The compounds of interest were studied for their ability to compete with [^3H]SPD for uptake into L1210 leukemia cell suspensions in vitro as described in Bergeron, R. J., Hawthorne, T. R., Vinson, J. R. T., Beck, D. L., Jr., Ingeno, M. J., “Role of the Methylene Backbone in the Antiproliferative Activity of Polyamine Analogues on L1210 Cells,” Cancer Res. 49: 2959-2964 (1989); Bergeron, R. J., McManis, J. S., Liu, C. Z., Feng, Y., Weimar, W. R., Luchetta, G. R., Wu, Q., Ortiz-Ocasio, J., Vinson, J. R. T., Kramer, D., Porter, C., “Antiproliferative Properties of Polyamine Analogues: A Structure-Activity Study,” J. Med. Chem. 37: 3464-3476 (1994); and Bergeron, R. J., Weimar, W. R., Wu, Q., Feng, Y., McManis, J. S., “Polyamine Analogue Regulation of NMDA MK-801 Binding: A Structure-Activity Study,” J. Med. Chem. 39: 5257-5266 (1996). Briefly, cell suspensions were incubated in 1 mL of culture medium containing radiolabeled SPD alone or radiolabeled SPD in the presence of graduated concentrations of a chelator or derivative. At the end of the incubation period, the tubes were centrifuged; the pellet was washed, digested, and neutralized prior to scintillation counting. Lineweaver-Burk plots indicated a simple competitive inhibition with respect to SPD. […]

[3] = 48 h exposure, read-out: IC50, 48 h
[4] = 96 h exposure, read-out: IC50, 96 h

SMILES | IC50 [1, 3] [µM] | IC50 [1, 4] [µM] | ligand/metal stoichiometry of the ferric complex [2] | Ki (polyamine transporter) [µM]
NCCCCNCCCNC(=O)c1ccc(C(=O)O)cc1 [Compound 7, N^1-terephthaloylspermidine] | > 100 | > 100 |  | 
Cc1c(O)c(=O)ccn1CCCNCCCCNCCCN [Compound 3, 1-(12-Amino-4,9-diazadodecyl)-2-methyl-3-hydroxy-4(1H)-pyridinone Tetrahydrochloride] |  |  | 3:1 | 3.7
COC(=O)c1ccc(C(=O)NCCCNCCCCN)cc1 [Compound 6, N^1-terephthaloylspermidine methyl ester] | > 100 | > 100 |  | 
